Source: publication PMC4307257
No constants are given. Whether binding was seen depends on the method and setting. In cells and extracts the contact can be indirect. These calls come from enrichment with a bait or labelling near it, and not all partners need be listed. Tags and fused reporters may be left off the sequences shown. Values belong to the binder of their own block, whether it stands above or below them.

Chains of the proteins cited; added tags and fusions are not shown. Residues count along the entry.
UniProt P05067, residues 672-713: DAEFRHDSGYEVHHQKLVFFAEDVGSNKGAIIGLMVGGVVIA

Biological target: human amyloid-β protein fragment (1–42) (human) (UniProt P05067)
Experiment: affinity purification with mass spectrometry; amyloid-β 1–42 immobilized on Affi-Gel 10; cleared 3% Triton X-100 lysate of rat brain homogenate (control; also after 70 µM H2O2, 0.1 mM isatin or both, 37 °C, 30 min), overnight at 4 °C, 50 mM potassium phosphate pH 7.4; elution with 1 M glycine pH 2.8, 150 mM NaCl; LC-MS/MS; ligand-free Affi-Gel 10 as control; only the target purified

binding: binds
B1: Phosphatidylethanolamine-binding protein 1 (protein, UniProt P31044 1-187)
chain: MAADISQWAGPLSLQEVDEPPQHALRVDYGGVTVDELGKVLTPTQVMNRPSSISWDGLDPGKLYTLVLTDPDAPSRKDPKFREWHHFLVVNMKGNDISSGTVLSEYVGSGPPKDTGLHRYVWLVYEQEQPLNCDEPILSNKSGDNRGKFKVESFRKKYHLGAPVAGTCFQAEWDDSVPKLHDQLAGK

binding: binds
B2: Phosphoglucomutase-1 (protein, UniProt P38652 1-562)
chain: MVKIVTVKTQAYPDQKPGTSGLRKRVKVFQGNANYAENFIQSIVSTVEPALRQEATLVVGGDGRFYMTEAIQLIVRIAAANGIGRLVIGQNGILSTPAVSCIIRKIKAIGGIILTASHNPGGPNGDFGIKFNISNGGPAPEAITDKIFQISKTIEEYAICPDLKVDLGVLGKQQFDLENKFKPFTVEIVDSVEAYATMLRNIFDFNALKELLSGPNRLKIRIDAMHGVVGPYVKKILCEELGAPANSAVNCVPLEDFGGHHPDPNLTYAADLVETMKSGEHDFGAAFDGDGDRNMILGKHGFFVNPSDSVAVIAANIFSIPYFQQTGVRGFARSMPTSGALDRVANATKIASYETPTGWKFFGNLMDASKLSLCGEESFGTGSDHIREKDGLWAVLAWLSILATRKQRVEDILKDHWQKFGRNFFTRYDYEEVEAEGANKMMKDLEALMLDRSFVGKQFSANDKVYTVEKADNFEYSDPVDGSISKNQGLRLIFADGSRIIFRLSGTGSAGATIRLYIDSYEKDAAKINQDPQVMLAPLISIALKVSQLQERTGRTAPTVIT

binding: binds
B3: Carbamoyl-phosphate synthase [ammonia], mitochondrial (protein, UniProt P07756 39-1500)
chain: LSVKAQTAHIVLEDGTKMKGYSFGHPSSVAGEVVFNTGLGGYSEALTDPAYKGQILTMANPIIGNGGAPDTTARDELGLNKYMESDGIKVAGLLVLNYSHDYNHWLATKSLGQWLQEEKVPAIYGVDTRMLTKIIRDKGTMLGKIEFEGQSVDFVDPNKQNLIAEVSTKDVKVFGKGNPTKVVAVDCGIKNNVIRLLVKRGAEVHLVPWNHDFTQMDYDGLLIAGGPGNPALAQPLIQNVKKILESDRKEPLFGISTGNIITGLAAGAKSYKMSMANRGQNQPVLNITNRQAFITAQNHGYALDNTLPAGWKPLFVNVNDQTNEGIMHESKPFFAVQFHPEVSPGPTDTEYLFDSFFSLIKKGKGTTITSVLPKPALVASRVEVSKVLILGSGGLSIGQAGEFDYSGSQAVKAMKEENVKTVLMNPNIASVQTNEVGLKQADAVYFLPITPQFVTEVIKAERPDGLILGMGGQTALNCGVELFKRGVLKEYGVKVLGTSVESIMATEDRQLFSDKLNEINEKIAPSFAVESMEDALKAADTIGYPVMIRSAYALGGLGSGICPNKETLMDLGTKAFAMTNQILVERSVTGWKEIEYEVVRDADDNCVTVCNMENVDAMGVHTGDSVVVAPAQTLSNAEFQMLRRTSINVVRHLGIVGECNIQFALHPTSMEYCIIEVNARLSRSSALASKATGYPLAFIAAKIALGIPLPEIKNVVSGKTSACFEPSLDYMVTKIPRWDLDRFHGTSSRIGSSMKSVGEVMAIGRTFEESFQKALRMCHPSVDGFTPRLPMNKEWPANLDLRKELSEPSSTRIYAIAKALENNMSLDEIVKLTSIDKWFLYKMRDILNMDKTLKGLNSESVTEETLRQAKEIGFSDKQISKCLGLTEAQTRELRLKKNIHPWVKQIDTLAAEYPSVTNYLYVTYNGQEHDIKFDEHGIMVLGCGPYHIGSSVEFDWCAVSSIRTLRQLGKKTVVVNCNPETVSTDFDECDKLYFEELSLERILDIYHQEACNGCIISVGGQIPNNLAVPLYKNGVKIMGTSPLQIDRAEDRSIFSAVLDELKVAQAPWKAVNTLNEALEFANSVGYPCLLRPSYVLSGSAMNVVFSEDEMKRFLEEATRVSQEHPVVLTKFIEGAREVEMDAVGKEGRVISHAISEHVEDAGVHSGDATLMLPTQTISQGAIEKVKDATRKIAKAFAISGPFNVQFLVKGNDVLVIECNLRASRSFPFVSKTLGVDFIDVATKVMIGESVDEKHLPTLEQPIIPSDYVAIKAPMFSWPRLRDADPILRCEMASTGEVACFGEGIHTAFLKAMLSTGFKIPQKGILIGIQQSFRPRFLGVAEQLHNEGFKLFATEATSDWLNANNVPATPVAWPSQEGQNPSLSSIRKLIRDGSIDLVINLPNNNTKFVHDNYVIRRTAVDSGIALLTNFQVTKLFAEAVQKARTVDSKSLFHYRQYSAGKAA

binding: binds
B4: Superoxide dismutase [Mn] (protein, UniProt P07895 25-222)
chain: KHSLPDLPYDYGALEPHINAQIMQLHHSKHHATYVNNLNVTEEKYHEALAKGDVTTQVALQPALKFNGGGHINHSIFWTNLSPKGGGEPKGELLEAIKRDFGSFEKFKEKLTAVSVGVQGSGWGWLGFNKEQGRLQIAACSNQDPLQGTTGLIPLLGIDVWEHAYYLQYKNVRPDYLKAIWNVINWENVSQRYIVCKK

binding: binds
B6: Peroxiredoxin-1 (protein, UniProt Q63716 1-199)
chain: MSSGNAKIGHPAPSFKATAVMPDGQFKDISLSDYKGKYVVFFFYPLDFTFVCPTEIIAFSDRAEEFKKLNCQVIGASVDSHFCHLAWINTPKKQGGLGPMNIPLVSDPKRTIAQDYGVLKADEGISFRGLFIIDDKGILRQITINDLPVGRSVDEILRLVQAFQFTDKHGEVCPAGWKPGSDTIKPDVNKSKEYFSKQK

binding: binds
B10: Peroxiredoxin-2 (protein, UniProt P35704 1-198)
chain: MASGNAHIGKPAPDFTGTAVVDGAFKEIKLSDYRGKYVVLFFYPLDFTFVCPTEIIAFSDHAEDFRKLGCEVLGVSVDSQFTHLAWINTPRKEGGLGPLNIPLLADVTKSLSQNYGVLKNDEGIAYRGLFIIDAKGVLRQITVNDLPVGRSVDEALRLVQAFQYTDEHGEVCPAGWKPGSDTIKPNVDDSKEYFSKHN

Further lines, the binder ahead of its results:

B5: Fructose-bisphosphate aldolase A (protein, UniProt P05065 1-364)
chain: MPHPYPALTPEQKKELADIAHRIVAPGKGILAADESTGSIAKRLQSIGTENTEENRRFYRQLLLTADDRVNPCIGGVILFHETLYQKADDGRPFPQVIKSKGGVVGIKVDKGVVPLAGTNGETTTQGLDGLSERCAQYKKDGADFAKWRCVLKIGEHTPSSLAIMENANVLARYASICQQNGIVPIVEPEILPDGDHDLKRCQYVTEKVLAAVYKALSDHHVYLEGTLLKPNMVTPGHACTQKFSNEEIAMATVTALRRTVPPAVPGVTFLSGGQSEEEASINLNAINKCPLLKPWALTFSYGRALQASALKAWGGKKENLKAAQEEYIKRALANSLACQGKYTPSGQSGAAASESLFISNHAY
binding: binds

B7: Glutathione S-transferase α-2 (protein, UniProt P04903 1-222)
chain: MSGKPVLHYFNARGRMECIRWLLAAAGVEFEEKLIQSPEDLEKLKKDGNLMFDQVPMVEIDGMKLAQTRAILNYIATKYDLYGKDMKERALIDMYSEGILDLTEMIIQLVICPPDQREAKTALAKDRTKNRYLPAFEKVLKSHGQDYLVGNRLTRVDIHLLELLLYVEEFDASLLTSFPLLKAFKSRISSLPNVKKFLQPGSQRKPAMDAKQIEEARKVFKF
binding: binds

B8: Betaine-homocysteine S-methyltransferase 1 (protein, UniProt O09171 1-407)
chain: MAPIAGKKAKRGILERLNAGEVVIGDGGFVFALEKRGYVKAGPWTPEAAVEHPEAVRQLHREFLRAGSNVMQTFTFYASEDKLENRGNYVAEKISGQKVNEAACDIARQVADEGDALVAGGVSQTPSYLSCKSETEVKKIFHQQLEVFMKKNVDFLIAEYFEHVEEAVWAVEALKTSGKPIAATMCIGPEGDLHGVSPGECAVRLVKAGAAIVGVNCHFDPSTSLQTIKLMKEGLEAARLKAYLMSHALAYHTPDCGKQGFIDLPEFPFGLEPRVATRWDIQKYAREAYNLGVRYIGGCCGFEPYHIRAIAEELAPERGFLPPASEKHGSWGSGLDMHTKPWIRARARKEYWQNLRIASGRPYNPSMSKPDAWGVTKGAAELMQQKEATTEQQLRALFEKQKFKSAQ
binding: binds

B9: Fructose-bisphosphate aldolase B (protein, UniProt P00884 1-364)
chain: MAHRFPALTSEQKKELSEIAQRIVANGKGILAADESVGTMGNRLQRIKVENTEENRRQFRELLFSVDNSISQSIGGVILFHETLYQKDSQGKLFRNILKEKGIVVGIKLDQGGAPLAGTNKETTIQGLDGLSERCAQYKKDGVDFGKWRAVLRISDQCPSSLAIQENANALARYASICQQNGLVPIVEPEVLPDGDHDLEHCQYVSEKVLAAVYKALNDHHVYLEGTLLKPNMLTAGHACTKKYTPEQVAMATVTALHRTVPAAVPSICFLSGGMSEEDATLNLNAIYRCPLPRPWKLSFSYGRALQASALAAWGGKAANKKATQEAFMKRAVANCQAAQGQYVHTGSSGAASTQSLFTASYTY
binding: binds
